Measured values: patent publication US5698516A (Ferring B.V., priority 1993, dated 1997)
Some peptides are written in HELM: one residue between dots, names in brackets for other building blocks, links after the first $. The same purity stands for every peptide and may come from a single statement.

test: general procedure: Fmoc solid-phase peptide synthesis; TentaGel-S RAM-resin (1 g, 0.2 mmol/g; RAPP Polymere S 30 023); TBTU (cyclization); settings: whole synthesis, scale of the general procedure 1 g resin

Final HPLC purity, 99%:
PEPTIDE1{[CH2CH2CH2CO].[D-Thi].[Thi].[CaMeAbu].N.C.[Hyp].[dR].G.[am]}$PEPTIDE1,PEPTIDE1,1:R3-6:R3$$$V2.0, PEPTIDE1{[CH2CH2CH2CO].[dF].[Thi].V.N.C.[Hyp].[dR].G.[am]}$PEPTIDE1,PEPTIDE1,1:R3-6:R3$$$V2.0, PEPTIDE1{[CH2CH2CH2CO].[dF].[Thi].[CaMeAbu].N.C.[Hyp].[dR].G.[am]}$PEPTIDE1,PEPTIDE1,1:R3-6:R3$$$V2.0, PEPTIDE1{[CH2CH2CH2CO].[dY].[Thi].[CaMeAbu].N.C.[Hyp].[dR].G.[am]}$PEPTIDE1,PEPTIDE1,1:R3-6:R3$$$V2.0, PEPTIDE1{[CH2CH2CH2CO].[D-Thi].M.V.N.C.[Hyp].[dR].G.[am]}$PEPTIDE1,PEPTIDE1,1:R3-6:R3$$$V2.0, PEPTIDE1{[CH2CH2CH2CO].[dY].F.V.N.C.P.[dR].G.[am]}$PEPTIDE1,PEPTIDE1,1:R3-6:R3$$$V2.0
